{"source": "PubChem BioAssay AID1259405 (NCATS, 2018)", "assay": "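Mouse-designed siRNAs used to find CHO productivity engineering targets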 (primary screen)", "system": "Chinese hamster CHO-K1 ovary cells with stable secreted eGFP expression", "reagents": "single siRNA against mouse genes, 0.8 pmol siRNA per well (2 µl of 400 nM stock)", "duration": "3 days", "measurement": "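Percent of the per-plate non-targeting control median for intracellular GFP per well by laser scanning cytometry and for cell viability by ATP luminescence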", "reading the numbers": "GFP, % of control: higher = more GFP per well, higher productivity; viability (ATP), % of control: higher = more viable cells (more ATP)", "hit rule": "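Called active when intracellular GFP, relative to negative control, is at or above 120%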", "note": "This is a random part of about 50,000 reagents tested. About 4,000 of all reagents (8%) count as active. 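Mouse siRNA library applied to hamster cells; one well for each siRNA.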 The numbers tell different reagents against one gene apart."}
{"target gene": "Fcgr3 (Fc receptor, IgG, low affinity III)", "reagent": 1, "GFP, % of control": 113, "viability (ATP), % of control": 103, "outcome": "inactive"}
{"target gene": "Fcgr3 (Fc receptor, IgG, low affinity III)", "reagent": 2, "GFP, % of control": 57.2, "viability (ATP), % of control": 73.5, "outcome": "inactive"}
{"target gene": "Fcgr3 (Fc receptor, IgG, low affinity III)", "reagent": 3, "GFP, % of control": 81.3, "viability (ATP), % of control": 54.6, "outcome": "inactive"}
{"target gene": "Pdia3 (protein disulfide isomerase associated 3)", "reagent": 1, "GFP, % of control": 138, "viability (ATP), % of control": 125, "outcome": "active"}
{"target gene": "Pdia3 (protein disulfide isomerase associated 3)", "reagent": 2, "GFP, % of control": 88.1, "viability (ATP), % of control": 74.5, "outcome": "inactive"}
{"target gene": "Pdia3 (protein disulfide isomerase associated 3)", "reagent": 3, "GFP, % of control": 86.6, "viability (ATP), % of control": 99.2, "outcome": "inactive"}
{"target gene": "Sh3bgrl3 (SH3 domain binding glutamic acid-rich protein-like 3)", "reagent": 1, "GFP, % of control": 112, "viability (ATP), % of control": 111, "outcome": "inactive"}
{"target gene": "Sh3bgrl3 (SH3 domain binding glutamic acid-rich protein-like 3)", "reagent": 2, "GFP, % of control": 66.9, "viability (ATP), % of control": 76.1, "outcome": "inactive"}
{"target gene": "Sh3bgrl3 (SH3 domain binding glutamic acid-rich protein-like 3)", "reagent": 3, "GFP, % of control": 84, "viability (ATP), % of control": 75.8, "outcome": "inactive"}
{"target gene": "Catsper3 (cation channel, sperm associated 3)", "reagent": 1, "GFP, % of control": 56.6, "viability (ATP), % of control": 70.8, "outcome": "inactive"}
{"target gene": "Catsper3 (cation channel, sperm associated 3)", "reagent": 2, "GFP, % of control": 69.1, "viability (ATP), % of control": 75.7, "outcome": "inactive"}
{"target gene": "Catsper3 (cation channel, sperm associated 3)", "reagent": 3, "GFP, % of control": 44.7, "viability (ATP), % of control": 63.2, "outcome": "inactive"}
{"target gene": "Krtap1-5 (keratin associated protein 1-5)", "reagent": 1, "GFP, % of control": 57.5, "viability (ATP), % of control": 65.5, "outcome": "inactive"}
{"target gene": "Krtap1-5 (keratin associated protein 1-5)", "reagent": 2, "GFP, % of control": 81.7, "viability (ATP), % of control": 85.9, "outcome": "inactive"}
{"target gene": "Krtap1-5 (keratin associated protein 1-5)", "reagent": 3, "GFP, % of control": 52.9, "viability (ATP), % of control": 44.7, "outcome": "inactive"}
{"target gene": "Adra1d (adrenergic receptor, alpha 1d)", "reagent": 1, "GFP, % of control": 56.4, "viability (ATP), % of control": 79.8, "outcome": "inactive"}
{"target gene": "Adra1d (adrenergic receptor, alpha 1d)", "reagent": 2, "GFP, % of control": 68.9, "viability (ATP), % of control": 69.5, "outcome": "inactive"}
{"target gene": "Adra1d (adrenergic receptor, alpha 1d)", "reagent": 3, "GFP, % of control": 46.7, "viability (ATP), % of control": 37.6, "outcome": "inactive"}
{"target gene": "Rragb (Ras-related GTP binding B)", "reagent": 1, "GFP, % of control": 86.2, "viability (ATP), % of control": 114, "outcome": "inactive"}
{"target gene": "Rragb (Ras-related GTP binding B)", "reagent": 2, "GFP, % of control": 115, "viability (ATP), % of control": 77.9, "outcome": "inactive"}
{"target gene": "Rragb (Ras-related GTP binding B)", "reagent": 3, "GFP, % of control": 94.8, "viability (ATP), % of control": 90.9, "outcome": "inactive"}
{"target gene": "Nudt16 (nudix hydrolase 16)", "reagent": 1, "GFP, % of control": 57.2, "viability (ATP), % of control": 82.5, "outcome": "inactive"}
{"target gene": "Nudt16 (nudix hydrolase 16)", "reagent": 2, "GFP, % of control": 68.7, "viability (ATP), % of control": 82.2, "outcome": "inactive"}
{"target gene": "Nudt16 (nudix hydrolase 16)", "reagent": 3, "GFP, % of control": 85.4, "viability (ATP), % of control": 84.8, "outcome": "inactive"}
{"target gene": "Dock2 (dedicator of cyto-kinesis 2)", "reagent": 1, "GFP, % of control": 132, "viability (ATP), % of control": 118, "outcome": "active"}
{"target gene": "Dock2 (dedicator of cyto-kinesis 2)", "reagent": 2, "GFP, % of control": 128, "viability (ATP), % of control": 112, "outcome": "active"}
{"target gene": "Dock2 (dedicator of cyto-kinesis 2)", "reagent": 3, "GFP, % of control": 82.1, "viability (ATP), % of control": 74.4, "outcome": "inactive"}
{"target gene": "Trpv3", "reagent": 1, "GFP, % of control": 75.6, "viability (ATP), % of control": 86.4, "outcome": "inactive"}
{"target gene": "Trpv3", "reagent": 2, "GFP, % of control": 76.7, "viability (ATP), % of control": 92.4, "outcome": "inactive"}
{"target gene": "Trpv3", "reagent": 3, "GFP, % of control": 54.2, "viability (ATP), % of control": 77.6, "outcome": "inactive"}
{"target gene": "Bach1", "reagent": 1, "GFP, % of control": 71.6, "viability (ATP), % of control": 70.8, "outcome": "inactive"}
{"target gene": "Bach1", "reagent": 2, "GFP, % of control": 111, "viability (ATP), % of control": 77.9, "outcome": "inactive"}
{"target gene": "Bach1", "reagent": 3, "GFP, % of control": 62.4, "viability (ATP), % of control": 90.5, "outcome": "inactive"}
{"target gene": "Tssc4 (tumor-suppressing subchromosomal transferable fragment 4)", "reagent": 1, "GFP, % of control": 123, "viability (ATP), % of control": 102, "outcome": "active"}
{"target gene": "Tssc4 (tumor-suppressing subchromosomal transferable fragment 4)", "reagent": 2, "GFP, % of control": 121, "viability (ATP), % of control": 109, "outcome": "active"}
{"target gene": "Tssc4 (tumor-suppressing subchromosomal transferable fragment 4)", "reagent": 3, "GFP, % of control": 84.3, "viability (ATP), % of control": 84.9, "outcome": "inactive"}
{"target gene": "Enpp5 (ectonucleotide pyrophosphatase/phosphodiesterase 5)", "reagent": 1, "GFP, % of control": 50.1, "viability (ATP), % of control": 44.2, "outcome": "inactive"}
{"target gene": "Enpp5 (ectonucleotide pyrophosphatase/phosphodiesterase 5)", "reagent": 2, "GFP, % of control": 56.6, "viability (ATP), % of control": 67.7, "outcome": "inactive"}
{"target gene": "Urod (uroporphyrinogen decarboxylase)", "reagent": 1, "GFP, % of control": 34.2, "viability (ATP), % of control": 69.4, "outcome": "inactive"}
{"target gene": "Urod (uroporphyrinogen decarboxylase)", "reagent": 2, "GFP, % of control": 96.4, "viability (ATP), % of control": 89, "outcome": "inactive"}
{"target gene": "Urod (uroporphyrinogen decarboxylase)", "reagent": 3, "GFP, % of control": 26.7, "viability (ATP), % of control": 33.8, "outcome": "inactive"}

Active calls (from the list above):
{"target gene": "Pdia3 (protein disulfide isomerase associated 3)", "reagent": 1, "GFP, % of control": 138, "viability (ATP), % of control": 125, "outcome": "active"}
{"target gene": "Dock2 (dedicator of cyto-kinesis 2)", "reagent": 1, "GFP, % of control": 132, "viability (ATP), % of control": 118, "outcome": "active"}
{"target gene": "Dock2 (dedicator of cyto-kinesis 2)", "reagent": 2, "GFP, % of control": 128, "viability (ATP), % of control": 112, "outcome": "active"}
{"target gene": "Tssc4 (tumor-suppressing subchromosomal transferable fragment 4)", "reagent": 1, "GFP, % of control": 123, "viability (ATP), % of control": 102, "outcome": "active"}
{"target gene": "Tssc4 (tumor-suppressing subchromosomal transferable fragment 4)", "reagent": 2, "GFP, % of control": 121, "viability (ATP), % of control": 109, "outcome": "active"}
